Results as given in patent US20190324032A1 (University of California, published 2019).
No constants are given. Whether binding was seen depends on the method and setting. Some entries that bind do so weakly or less than the wild type. Tags and fused reporters may be left off the sequences shown.

Protein sequences, listed by entry. Tags and fused reporters are not part of them. Lines headed by an entry give the natural chain unless they say otherwise; changes in a name come on top.
UniProt Q16526: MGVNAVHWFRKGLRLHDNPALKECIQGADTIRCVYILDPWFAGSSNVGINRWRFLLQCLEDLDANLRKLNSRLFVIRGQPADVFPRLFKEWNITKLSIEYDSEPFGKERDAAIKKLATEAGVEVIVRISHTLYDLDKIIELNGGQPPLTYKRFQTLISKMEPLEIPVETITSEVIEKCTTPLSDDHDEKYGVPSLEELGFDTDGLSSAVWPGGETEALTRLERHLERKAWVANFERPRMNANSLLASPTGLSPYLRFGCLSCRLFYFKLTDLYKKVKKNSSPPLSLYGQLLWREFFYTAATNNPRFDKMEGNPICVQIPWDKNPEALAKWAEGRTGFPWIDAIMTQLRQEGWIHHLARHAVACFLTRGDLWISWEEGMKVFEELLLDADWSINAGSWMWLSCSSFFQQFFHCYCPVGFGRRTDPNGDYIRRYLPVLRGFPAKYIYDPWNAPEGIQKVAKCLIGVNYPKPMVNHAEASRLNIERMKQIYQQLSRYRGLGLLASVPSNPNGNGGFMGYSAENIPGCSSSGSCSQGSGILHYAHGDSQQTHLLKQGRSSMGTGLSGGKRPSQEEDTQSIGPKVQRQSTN

Assays:
[1] = molecular target: T1, CRY1 PHR (residues 1-491) after cleavage of the His6 tag, with residual vector sequence (Example 6) (human) (UniProt Q16526); assay: FP displacement assay; competitor of labeled CLOCK PAS-B
T1 sequence: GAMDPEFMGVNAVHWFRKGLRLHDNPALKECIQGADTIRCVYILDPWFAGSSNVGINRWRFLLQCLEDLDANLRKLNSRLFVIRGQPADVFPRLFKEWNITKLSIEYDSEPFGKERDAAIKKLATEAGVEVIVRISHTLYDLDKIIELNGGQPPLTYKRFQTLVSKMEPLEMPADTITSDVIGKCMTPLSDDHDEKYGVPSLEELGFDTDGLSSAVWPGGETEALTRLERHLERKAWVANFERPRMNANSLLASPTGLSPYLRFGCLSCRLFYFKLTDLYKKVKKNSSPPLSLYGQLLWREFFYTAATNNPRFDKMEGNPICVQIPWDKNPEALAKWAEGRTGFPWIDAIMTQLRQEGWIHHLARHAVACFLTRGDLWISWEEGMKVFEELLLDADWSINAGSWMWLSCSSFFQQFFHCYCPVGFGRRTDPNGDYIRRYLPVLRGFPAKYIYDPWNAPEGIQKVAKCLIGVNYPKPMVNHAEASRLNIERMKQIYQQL

[2] = molecular target: T1, CRY1 PHR (residues 1-491) after cleavage of the His6 tag, with residual vector sequence (Example 6) (human); assay: FP displacement assay; 100 µM peptide, 20 nM CLOCK PAS-B probe, 4 µM CRY1 PHR; competitor of labeled CLOCK PAS-B

binding [1]: binds
binding [2]: binds
Binder: CSQGSGILHYAHGDSQQTHLLK [Human CRY1 Exon 11-encoded peptide (residues 530-552)]
